{"source": "PubChem BioAssay AID1259327 – Drosophila RNAi Screening Center | 2017", "aim": "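Knock-downs altering cellular ATP with no metal added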", "cells": "Drosophila S2R+ cells", "reagents": "long dsRNA against Drosophila genes", "time to read-out": "5 days (water added on day 4, read one day later)", "treatment": "water added as vehicle, no metal, one day before read-out", "measured": "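Luciferase ATP signal per well, normalised to plate mean, duplicate average converted to z-score across plates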", "scale": "ATP z-score: higher = more total ATP than typical wells; ATP luminescence: higher = more total ATP", "rule for the call": "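Called active when the ATP z-score exceeds 1.5 or falls below -1.5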", "calls": "active = hit: ATP up or down; inactive = no clear ATP change", "note": "The deposit covers about 3,100 reagents; below is a part drawn at random. In the full data, 378 (12%) were called active. 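Hits include both directions; z-score sign shows ATP rise or fall; raw luminescence values are not plate-normalised.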 Not stated in the record: the amount of reagent."}
The opening 3 records as a preview:
{"target gene": "CG10226 (GeneID 38725)", "DRSC id": "DRSC09715", "ATP z-score, duplicate mean": 0.0492, "ATP luminescence, replicate 1 (RLU)": 6.78e5, "ATP luminescence, replicate 2 (RLU)": 7.96e5, "activity call": "inactive"}
{"target gene": "SdhD (GeneID 42808)", "DRSC id": "DRSC14215", "ATP z-score, duplicate mean": -0.702, "ATP luminescence, replicate 1 (RLU)": 2.60e5, "ATP luminescence, replicate 2 (RLU)": 7.06e5, "activity call": "inactive"}
{"target gene": "SdhD (GeneID 42808)", "DRSC id": "DRSC39808", "ATP z-score, duplicate mean": 0.0993, "ATP luminescence, replicate 1 (RLU)": 4.59e5, "ATP luminescence, replicate 2 (RLU)": 5.14e5, "activity call": "inactive"}

The listing, from the first entry:
{"target gene": "CG10226 (GeneID 38725)", "DRSC id": "DRSC09715", "ATP z-score, duplicate mean": 0.0492, "ATP luminescence, replicate 1 (RLU)": 6.78e5, "ATP luminescence, replicate 2 (RLU)": 7.96e5, "activity call": "inactive"}
{"target gene": "SdhD (GeneID 42808)", "DRSC id": "DRSC14215", "ATP z-score, duplicate mean": -0.702, "ATP luminescence, replicate 1 (RLU)": 2.60e5, "ATP luminescence, replicate 2 (RLU)": 7.06e5, "activity call": "inactive"}
{"target gene": "SdhD (GeneID 42808)", "DRSC id": "DRSC39808", "ATP z-score, duplicate mean": 0.0993, "ATP luminescence, replicate 1 (RLU)": 4.59e5, "ATP luminescence, replicate 2 (RLU)": 5.14e5, "activity call": "inactive"}
{"target gene": "Tom7 (GeneID 35899)", "DRSC id": "DRSC05135", "ATP z-score, duplicate mean": -0.768, "ATP luminescence, replicate 1 (RLU)": 6.57e5, "ATP luminescence, replicate 2 (RLU)": 6.61e5, "activity call": "inactive"}
{"target gene": "Tom7 (GeneID 35899)", "DRSC id": "DRSC07113", "ATP z-score, duplicate mean": -0.39, "ATP luminescence, replicate 1 (RLU)": 6.36e5, "ATP luminescence, replicate 2 (RLU)": 5.32e5, "activity call": "inactive"}
{"target gene": "fbl (GeneID 46234)", "DRSC id": "DRSC11886", "ATP z-score, duplicate mean": -0.741, "ATP luminescence, replicate 1 (RLU)": 8.34e5, "ATP luminescence, replicate 2 (RLU)": 7.65e5, "activity call": "inactive"}
{"target gene": "fbl (GeneID 46234)", "DRSC id": "DRSC27922", "ATP z-score, duplicate mean": 1.54, "ATP luminescence, replicate 1 (RLU)": 9.35e5, "ATP luminescence, replicate 2 (RLU)": 1.07e6, "activity call": "active"}
{"target gene": "TM9SF2 (GeneID 35335)", "DRSC id": "DRSC03197", "ATP z-score, duplicate mean": -1.53, "ATP luminescence, replicate 1 (RLU)": 3.88e5, "ATP luminescence, replicate 2 (RLU)": 3.55e5, "activity call": "active"}
{"target gene": "TM9SF2 (GeneID 35335)", "DRSC id": "DRSC39485", "ATP z-score, duplicate mean": -1.17, "ATP luminescence, replicate 1 (RLU)": 4.03e5, "ATP luminescence, replicate 2 (RLU)": 3.49e5, "activity call": "inactive"}
{"target gene": "CG5906 (GeneID 39343)", "DRSC id": "DRSC10557", "ATP z-score, duplicate mean": 0.0793, "ATP luminescence, replicate 1 (RLU)": 9.53e5, "ATP luminescence, replicate 2 (RLU)": 8.61e5, "activity call": "inactive"}
{"target gene": "CG3638 (GeneID 31071)", "DRSC id": "DRSC18533", "ATP z-score, duplicate mean": -0.562, "ATP luminescence, replicate 1 (RLU)": 4.96e5, "ATP luminescence, replicate 2 (RLU)": 6.40e5, "activity call": "inactive"}
{"target gene": "CG3638 (GeneID 31071)", "DRSC id": "DRSC25349", "ATP z-score, duplicate mean": 0.348, "ATP luminescence, replicate 1 (RLU)": 9.12e5, "ATP luminescence, replicate 2 (RLU)": 8.21e5, "activity call": "inactive"}
{"target gene": "nrv3 (GeneID 35408)", "DRSC id": "DRSC03097", "ATP z-score, duplicate mean": -1.08, "ATP luminescence, replicate 1 (RLU)": 6.05e5, "ATP luminescence, replicate 2 (RLU)": 6.17e5, "activity call": "inactive"}
{"target gene": "MRP (GeneID 34686)", "DRSC id": "DRSC02942", "ATP z-score, duplicate mean": 0.00164, "ATP luminescence, replicate 1 (RLU)": 4.53e5, "ATP luminescence, replicate 2 (RLU)": 5.07e5, "activity call": "inactive"}
{"target gene": "MRP (GeneID 34686)", "DRSC id": "DRSC39503", "ATP z-score, duplicate mean": -1.02, "ATP luminescence, replicate 1 (RLU)": 3.92e5, "ATP luminescence, replicate 2 (RLU)": 3.79e5, "activity call": "inactive"}
{"target gene": "CG43155 (GeneID 32092)", "DRSC id": "DRSC19777", "ATP z-score, duplicate mean": 1.48, "ATP luminescence, replicate 1 (RLU)": 5.83e5, "ATP luminescence, replicate 2 (RLU)": 7.89e5, "activity call": "inactive"}
{"target gene": "Zip99C (GeneID 43533)", "DRSC id": "DRSC16320", "ATP z-score, duplicate mean": -0.944, "ATP luminescence, replicate 1 (RLU)": 5.97e5, "ATP luminescence, replicate 2 (RLU)": 6.19e5, "activity call": "inactive"}
{"target gene": "CG14856 (GeneID 41790)", "DRSC id": "DRSC14980", "ATP z-score, duplicate mean": 1.1, "ATP luminescence, replicate 1 (RLU)": 3.25e5, "ATP luminescence, replicate 2 (RLU)": 9.40e5, "activity call": "inactive"}
{"target gene": "Slc25A46a (GeneID 32564)", "DRSC id": "DRSC20125", "ATP z-score, duplicate mean": -0.326, "ATP luminescence, replicate 1 (RLU)": 6.99e5, "ATP luminescence, replicate 2 (RLU)": 6.46e5, "activity call": "inactive"}
{"target gene": "Slc25A46a (GeneID 32564)", "DRSC id": "DRSC39802", "ATP z-score, duplicate mean": 0.105, "ATP luminescence, replicate 1 (RLU)": 4.40e5, "ATP luminescence, replicate 2 (RLU)": 5.36e5, "activity call": "inactive"}
{"target gene": "Best3 (GeneID 39661)", "DRSC id": "DRSC09880", "ATP z-score, duplicate mean": 0.503, "ATP luminescence, replicate 1 (RLU)": 9.82e5, "ATP luminescence, replicate 2 (RLU)": 9.42e5, "activity call": "inactive"}
{"target gene": "Best3 (GeneID 39661)", "DRSC id": "DRSC39740", "ATP z-score, duplicate mean": 1.92, "ATP luminescence, replicate 1 (RLU)": 5.82e5, "ATP luminescence, replicate 2 (RLU)": 6.10e5, "activity call": "active"}
{"target gene": "CG7091 (GeneID 41590)", "DRSC id": "DRSC12944", "ATP z-score, duplicate mean": -0.433, "ATP luminescence, replicate 1 (RLU)": 2.92e5, "ATP luminescence, replicate 2 (RLU)": 6.83e5, "activity call": "inactive"}
{"target gene": "CG7091 (GeneID 41590)", "DRSC id": "DRSC16197", "ATP z-score, duplicate mean": -0.727, "ATP luminescence, replicate 1 (RLU)": 2.67e5, "ATP luminescence, replicate 2 (RLU)": 6.81e5, "activity call": "inactive"}
